These are yes or no findings as the source states them, for the method shown. In cells and extracts the contact can be indirect. Some entries that bind do so weakly or less than the wild type. Sequences can lack the tags named with a protein.
Experiments:
[1] = target: T1, FLAG-14-3-3γ (UniProt P61981); experiment: co-IP; anti-FLAG IP from NIH3T3 cells stably expressing FLAG-14-3-3γ or FLAG-14-3-3σ that were treated with LY294002; immunoblot for p110 and TSC2
T1 sequence: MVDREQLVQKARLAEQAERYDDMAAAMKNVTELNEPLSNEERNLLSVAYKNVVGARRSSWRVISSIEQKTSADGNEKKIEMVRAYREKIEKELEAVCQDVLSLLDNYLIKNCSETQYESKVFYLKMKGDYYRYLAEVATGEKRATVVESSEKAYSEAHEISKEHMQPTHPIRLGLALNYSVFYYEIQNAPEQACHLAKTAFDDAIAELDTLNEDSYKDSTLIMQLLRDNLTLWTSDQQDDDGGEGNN

By UniProt entry, the sequences of proteins in these tests, tags left out.
UniProt Q61037: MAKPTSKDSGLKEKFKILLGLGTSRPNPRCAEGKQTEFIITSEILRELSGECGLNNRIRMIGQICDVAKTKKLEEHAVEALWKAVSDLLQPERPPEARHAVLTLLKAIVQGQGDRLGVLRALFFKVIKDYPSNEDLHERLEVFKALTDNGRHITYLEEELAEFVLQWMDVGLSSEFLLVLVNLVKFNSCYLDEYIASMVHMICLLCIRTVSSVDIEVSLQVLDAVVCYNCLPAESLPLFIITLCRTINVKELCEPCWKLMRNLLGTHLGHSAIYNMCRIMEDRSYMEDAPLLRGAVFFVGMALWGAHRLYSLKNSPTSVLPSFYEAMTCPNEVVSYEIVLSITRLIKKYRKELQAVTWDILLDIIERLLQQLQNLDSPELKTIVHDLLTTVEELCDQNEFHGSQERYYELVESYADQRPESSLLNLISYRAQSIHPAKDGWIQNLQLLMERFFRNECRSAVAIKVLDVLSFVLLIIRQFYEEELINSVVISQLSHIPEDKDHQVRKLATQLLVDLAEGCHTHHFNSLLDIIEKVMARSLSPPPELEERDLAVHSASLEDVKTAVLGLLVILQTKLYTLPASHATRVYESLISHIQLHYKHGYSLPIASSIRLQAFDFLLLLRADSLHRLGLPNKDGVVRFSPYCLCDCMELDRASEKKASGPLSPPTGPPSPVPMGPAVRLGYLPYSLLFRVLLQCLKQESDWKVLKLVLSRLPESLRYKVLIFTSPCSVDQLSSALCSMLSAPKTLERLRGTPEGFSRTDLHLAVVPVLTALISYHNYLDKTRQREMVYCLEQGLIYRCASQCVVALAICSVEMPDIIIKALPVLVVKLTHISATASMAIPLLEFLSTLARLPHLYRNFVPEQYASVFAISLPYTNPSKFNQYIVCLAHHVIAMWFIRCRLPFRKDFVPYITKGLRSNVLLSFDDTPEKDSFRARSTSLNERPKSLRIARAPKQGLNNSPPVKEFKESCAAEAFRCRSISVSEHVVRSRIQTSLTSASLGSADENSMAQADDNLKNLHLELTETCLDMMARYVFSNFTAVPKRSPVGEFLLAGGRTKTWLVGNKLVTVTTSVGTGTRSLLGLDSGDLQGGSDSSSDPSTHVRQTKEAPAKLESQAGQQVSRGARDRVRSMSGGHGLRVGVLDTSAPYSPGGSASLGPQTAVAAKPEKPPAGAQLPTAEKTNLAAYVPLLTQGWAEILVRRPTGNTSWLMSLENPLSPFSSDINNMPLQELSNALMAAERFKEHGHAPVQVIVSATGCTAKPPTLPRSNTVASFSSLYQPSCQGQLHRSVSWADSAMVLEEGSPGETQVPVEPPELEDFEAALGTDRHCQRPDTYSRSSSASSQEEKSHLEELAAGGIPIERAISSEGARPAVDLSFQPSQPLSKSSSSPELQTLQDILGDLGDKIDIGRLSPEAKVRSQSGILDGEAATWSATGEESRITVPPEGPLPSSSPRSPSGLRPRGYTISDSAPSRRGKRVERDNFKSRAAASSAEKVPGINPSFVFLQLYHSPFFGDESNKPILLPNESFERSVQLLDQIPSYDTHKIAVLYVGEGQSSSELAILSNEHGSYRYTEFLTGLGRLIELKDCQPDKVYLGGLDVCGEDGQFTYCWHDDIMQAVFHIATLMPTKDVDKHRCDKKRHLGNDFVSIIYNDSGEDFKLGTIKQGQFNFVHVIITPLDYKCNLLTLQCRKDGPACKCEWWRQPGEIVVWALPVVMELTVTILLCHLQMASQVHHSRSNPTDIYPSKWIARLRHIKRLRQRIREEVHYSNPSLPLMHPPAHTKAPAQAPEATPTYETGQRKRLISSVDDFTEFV

[2] = target: T2, GST-14-3-3γ (UniProt P61981); experiment: pull-down; GST-14-3-3 bound to glutathione-Sepharose beads, incubated with precleared NIH3T3 cell lysates 2 h at 4°C, washed three times with PBS, immunoblot for Raf-1, PI3K p110 and TSC2; only the target purified
T2 sequence: T1 sequence

[3] = target: T1, FLAG-14-3-3γ; experiment: co-IP; 1 mg lysate of NIH3T3 cells stably expressing FLAG-14-3-3γ or FLAG-14-3-3σ, 5 µg anti-Flag antibody overnight at 4°C, protein A/G beads, washed with RIPA buffer, immunoblot; reciprocal IPs with anti-Raf-1, anti-p110 and anti-TSC2; also from cells treated with PD98059 (interaction with p110 not eliminated, with TSC2 reduced)

Substance | binding [1] | binding [2] | binding [3]
TSC2 (from UniProt Q61037 1-1814) | no binding (condition: cells treated with LY294002) | binds | binds
Raf-1 (from UniProt Q99N57 1-648) (enzyme) | – | binds | binds
